Source: patent publication US6762290

By UniProt entry, the sequences of proteins in these tests, tags left out. Residues count along the entry.
UniProt P35968, 20-1356: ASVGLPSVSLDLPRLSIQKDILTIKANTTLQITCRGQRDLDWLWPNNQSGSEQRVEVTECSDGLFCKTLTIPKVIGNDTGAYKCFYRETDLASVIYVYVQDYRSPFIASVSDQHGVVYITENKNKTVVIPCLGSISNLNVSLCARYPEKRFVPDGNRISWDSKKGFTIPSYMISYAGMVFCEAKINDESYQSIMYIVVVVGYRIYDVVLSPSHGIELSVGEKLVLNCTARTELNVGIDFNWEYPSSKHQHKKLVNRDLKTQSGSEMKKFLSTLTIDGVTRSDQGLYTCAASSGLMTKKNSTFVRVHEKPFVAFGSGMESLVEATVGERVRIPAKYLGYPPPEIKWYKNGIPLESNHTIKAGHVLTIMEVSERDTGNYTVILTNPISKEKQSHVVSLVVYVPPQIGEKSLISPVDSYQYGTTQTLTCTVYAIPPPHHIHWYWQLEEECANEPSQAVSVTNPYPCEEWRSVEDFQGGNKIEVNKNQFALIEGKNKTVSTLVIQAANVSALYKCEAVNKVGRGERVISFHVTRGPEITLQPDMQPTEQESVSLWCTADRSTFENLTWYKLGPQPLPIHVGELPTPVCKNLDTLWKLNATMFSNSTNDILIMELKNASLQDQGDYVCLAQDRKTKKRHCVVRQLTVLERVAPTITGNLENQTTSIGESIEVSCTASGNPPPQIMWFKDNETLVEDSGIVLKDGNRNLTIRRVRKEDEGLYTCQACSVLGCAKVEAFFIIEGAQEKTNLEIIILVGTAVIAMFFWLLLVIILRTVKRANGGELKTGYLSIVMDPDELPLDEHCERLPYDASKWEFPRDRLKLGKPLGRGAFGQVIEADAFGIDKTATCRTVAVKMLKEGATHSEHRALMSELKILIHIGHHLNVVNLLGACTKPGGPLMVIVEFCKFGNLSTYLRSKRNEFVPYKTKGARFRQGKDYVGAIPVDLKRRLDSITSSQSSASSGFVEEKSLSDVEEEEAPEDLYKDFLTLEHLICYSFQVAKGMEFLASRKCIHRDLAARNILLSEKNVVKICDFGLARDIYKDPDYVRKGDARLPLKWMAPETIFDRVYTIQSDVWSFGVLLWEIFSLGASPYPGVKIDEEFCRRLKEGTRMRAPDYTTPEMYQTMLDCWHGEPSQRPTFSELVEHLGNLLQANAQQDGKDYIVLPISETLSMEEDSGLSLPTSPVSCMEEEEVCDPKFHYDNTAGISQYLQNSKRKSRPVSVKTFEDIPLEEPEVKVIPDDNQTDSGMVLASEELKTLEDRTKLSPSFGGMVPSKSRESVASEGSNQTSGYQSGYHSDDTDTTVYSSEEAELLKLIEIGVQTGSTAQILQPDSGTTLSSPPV

Target: VEGF receptors on HUVEC (VEGFR2/KDR) (Homo sapiens) (UniProt P35968)
Experiment: competition with a labelled probe
Conditions: 2'-F pyrimidines; no displacement of 125I-VEGF-165 up to 1000 nM; non-antagonist though it binds KDR/Fc; protein on the cell surface

Q: For “GGGAGGACGAUGCGGGGCCUGUUUGGAUCAUACCGAUCGUCAAUCCAAGAGUGGUCAGACGACUCGCCCGA [K1]”, which IC50 is on record?
A: > 1000 nM

At least one result comes from cells or an extract, where the contact may be indirect.
